Binding data for one molecule are collected here from paper PMC6753486.

Results are given in words; binding and its absence hold for the method and conditions named. In cells and extracts the contact can be indirect. Some entries that bind do so weakly or less than the wild type. Where a sequence is shown, tags or fusion partners need not be part of it.

Assay [1] has as its target T1, full length NRPD1 (Pol IV largest subunit) with C-terminal FLAG epitope (Arabidopsis thaliana) (UniProt Q9LQ02).
T1 sequence: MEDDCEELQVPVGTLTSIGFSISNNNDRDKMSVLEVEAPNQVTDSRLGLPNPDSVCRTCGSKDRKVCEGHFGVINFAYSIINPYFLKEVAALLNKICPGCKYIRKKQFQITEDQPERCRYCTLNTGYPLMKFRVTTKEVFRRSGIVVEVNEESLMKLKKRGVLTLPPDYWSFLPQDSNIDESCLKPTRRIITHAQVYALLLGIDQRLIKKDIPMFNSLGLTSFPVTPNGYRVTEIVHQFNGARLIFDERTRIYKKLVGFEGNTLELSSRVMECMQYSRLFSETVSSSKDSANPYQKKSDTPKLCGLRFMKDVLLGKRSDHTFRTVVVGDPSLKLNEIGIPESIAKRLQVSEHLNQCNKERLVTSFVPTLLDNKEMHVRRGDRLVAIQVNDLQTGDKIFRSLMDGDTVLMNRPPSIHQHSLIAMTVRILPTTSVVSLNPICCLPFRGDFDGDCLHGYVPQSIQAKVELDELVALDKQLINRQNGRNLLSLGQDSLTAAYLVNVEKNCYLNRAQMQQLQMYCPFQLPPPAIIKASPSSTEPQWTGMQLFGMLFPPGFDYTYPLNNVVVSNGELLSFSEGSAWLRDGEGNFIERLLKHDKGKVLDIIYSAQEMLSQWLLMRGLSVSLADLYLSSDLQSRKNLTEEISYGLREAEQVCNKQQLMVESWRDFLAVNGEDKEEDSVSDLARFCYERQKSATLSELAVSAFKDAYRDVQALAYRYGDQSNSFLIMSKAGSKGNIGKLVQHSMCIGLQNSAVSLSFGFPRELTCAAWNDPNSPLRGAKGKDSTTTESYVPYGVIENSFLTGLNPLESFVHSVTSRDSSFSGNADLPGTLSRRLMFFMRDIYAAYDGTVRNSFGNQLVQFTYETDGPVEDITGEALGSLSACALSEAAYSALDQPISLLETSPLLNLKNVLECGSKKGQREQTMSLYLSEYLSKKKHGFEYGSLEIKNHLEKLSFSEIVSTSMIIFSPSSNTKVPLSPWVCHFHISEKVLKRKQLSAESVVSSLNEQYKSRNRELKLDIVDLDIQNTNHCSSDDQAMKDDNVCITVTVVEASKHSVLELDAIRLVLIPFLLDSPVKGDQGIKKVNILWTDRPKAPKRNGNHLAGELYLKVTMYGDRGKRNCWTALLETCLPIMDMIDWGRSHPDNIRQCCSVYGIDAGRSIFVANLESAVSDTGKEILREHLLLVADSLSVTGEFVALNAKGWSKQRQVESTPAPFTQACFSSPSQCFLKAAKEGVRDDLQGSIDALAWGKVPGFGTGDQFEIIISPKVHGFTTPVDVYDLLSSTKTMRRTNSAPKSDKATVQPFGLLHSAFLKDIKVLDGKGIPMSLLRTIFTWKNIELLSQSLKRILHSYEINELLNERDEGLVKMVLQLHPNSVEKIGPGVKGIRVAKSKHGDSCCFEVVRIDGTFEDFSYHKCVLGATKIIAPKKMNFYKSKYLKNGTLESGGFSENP
The experiment in a line: co-IP; anti-FLAG agarose capture of FLAG-tagged NRPD1 proteins from plant lysate (50 mM Tris HCl pH 7.6, 150 mM NaCl, 5 mM MgCl2, 10% glycerol, 0.5 mM DTT, 0.1% IGEPAL), 2 h at 4°C, two washes; immunoblot with anti-NRP(D/E)2 and anti-RDR2; non-transgenic Col-0 as negative control.

Assay [2] concerns the target T2, NRPD1 lacking the C-terminal DeCL domain (deletion of amino acids 1337-1453) with C-terminal FLAG epitope (Arabidopsis thaliana) (UniProt Q9LQ02).
T2 sequence: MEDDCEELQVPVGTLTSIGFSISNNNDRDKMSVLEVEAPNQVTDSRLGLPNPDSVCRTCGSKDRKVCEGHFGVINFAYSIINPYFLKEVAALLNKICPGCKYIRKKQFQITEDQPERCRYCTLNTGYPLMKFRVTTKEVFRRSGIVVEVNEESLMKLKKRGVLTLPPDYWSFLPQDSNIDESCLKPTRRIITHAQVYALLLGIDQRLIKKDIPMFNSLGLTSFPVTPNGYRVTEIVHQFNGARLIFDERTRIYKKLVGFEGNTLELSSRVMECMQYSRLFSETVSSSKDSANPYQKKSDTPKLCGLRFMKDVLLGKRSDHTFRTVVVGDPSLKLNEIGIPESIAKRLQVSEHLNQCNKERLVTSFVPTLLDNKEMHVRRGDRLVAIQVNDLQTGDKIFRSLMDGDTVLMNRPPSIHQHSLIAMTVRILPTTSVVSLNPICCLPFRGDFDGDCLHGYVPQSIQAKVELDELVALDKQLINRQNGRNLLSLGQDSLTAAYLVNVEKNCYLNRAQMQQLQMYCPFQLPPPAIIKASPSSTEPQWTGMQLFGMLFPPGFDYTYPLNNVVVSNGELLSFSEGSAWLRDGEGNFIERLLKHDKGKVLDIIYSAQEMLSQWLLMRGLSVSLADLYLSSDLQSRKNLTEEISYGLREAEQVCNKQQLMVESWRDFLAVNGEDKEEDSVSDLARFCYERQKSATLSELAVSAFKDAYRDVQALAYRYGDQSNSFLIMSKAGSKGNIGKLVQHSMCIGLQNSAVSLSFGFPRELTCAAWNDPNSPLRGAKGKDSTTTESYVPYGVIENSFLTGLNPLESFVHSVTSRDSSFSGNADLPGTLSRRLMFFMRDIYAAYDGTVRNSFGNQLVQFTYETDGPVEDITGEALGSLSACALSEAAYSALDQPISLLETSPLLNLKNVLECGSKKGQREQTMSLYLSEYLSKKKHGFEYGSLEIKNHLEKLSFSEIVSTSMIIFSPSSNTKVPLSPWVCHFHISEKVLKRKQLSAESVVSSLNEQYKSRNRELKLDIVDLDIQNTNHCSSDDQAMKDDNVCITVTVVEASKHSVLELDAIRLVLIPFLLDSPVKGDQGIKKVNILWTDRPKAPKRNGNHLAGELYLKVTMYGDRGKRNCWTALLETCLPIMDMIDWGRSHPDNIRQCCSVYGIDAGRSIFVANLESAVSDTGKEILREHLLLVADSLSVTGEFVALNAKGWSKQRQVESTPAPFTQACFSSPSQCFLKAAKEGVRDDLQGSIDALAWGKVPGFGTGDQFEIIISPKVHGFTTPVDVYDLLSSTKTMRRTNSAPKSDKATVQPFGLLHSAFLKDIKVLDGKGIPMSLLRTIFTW
The description is as above.

B1: RNA … RNA POLYMERASE 2 (enzyme, UniProt O82504 1-1133)
chain: MVSETTTNRSTVKISNVPQTIVADELLRFLELHLGEDTVFALEIPTTRDNWKPRDFARVQFTTLEVKSRAQLLSSQSKLLFKTHNLRLSEAYDDIIPRPVDPRKRLDDIVLTVGFPESDEKRFCALEKWDGVRCWILTEKRRVEFWVWESGDCYKIEVRFEDIIETLSCCVNGDASEIDAFLLKLKYGPKVFKRVTVHIATKFKSDRYRFCKEDFDFMWIRTTDFSGSKSIGTSTCFCLEVHNGSTMLDIFSGLPYYREDTLSLTYVDGKTFASAAQIVPLLNAAILGLEFPYEILFQLNALVHAQKISLFAASDMELIKILRGMSLETALVILKKLHQQSSICYDPVFFVKTQMQSVVKKMKHSPASAYKRLTEQNIMSCQRAYVTPSKIYLLGPELETANYVVKNFAEHVSDFMRVTFVEEDWSKLPANALSVNSKEGYFVKPSRTNIYNRVLSILGEGITVGPKRFEFLAFSASQLRGNSVWMFASNEKVKAEDIREWMGCFRKIRSISKCAARMGQLFSASRQTLIVRAQDVEQIPDIEVTTDGADYCFSDGIGKISLAFAKQVAQKCGLSHVPSAFQIRYGGYKGVIAVDRSSFRKLSLRDSMLKFDSNNRMLNVTRWTESMPCFLNREIICLLSTLGIEDAMFEAMQAVHLSMLGNMLEDRDAALNVLQKLSGENSKNLLVKMLLQGYAPSSEPYLSMMLRVHHESQLSELKSRCRILVPKGRILIGCMDEMGILEYGQVYVRVTLTKAELKSRDQSYFRKIDEETSVVIGKVVVTKNPCLHPGDIRVLDAIYEVHFEEKGYLDCIIFPQKGERPHPNECSGGDLDGDQFFVSWDEKIIPSEMDPPMDYAGSRPRLMDHDVTLEEIHKFFVDYMISDTLGVISTAHLVHADRDPEKARSQKCLELANLHSRAVDFAKTGAPAEMPYALKPREFPDFLERFEKPTYISESVFGKLYRAVKSSLAQRKPEAESEDTVAYDVTLEEAGFESFIETAKAHRDMYGEKLTSLMIYYGAANEEEILTGILKTKEMYLARDNRRYGDMKDRITLSVKDLHKEAMGWFEKSCEDEQQKKKLASAWYYVTYNPNHRDEKLTFLSFPWIVGDVLLDIKAENAQRQSVEEKTSGLVSI
For the molecule B1, the binding result in assay [1] and in assay [2] was “binds” in each case.
